± gives the standard deviation. Only a part is listed here, and it is no random draw. Many entries were measured with a wide error.
System: MIWI (PIWIL1) piRISC loaded with piRNA #2 (30 nt)
Assay: pre-steady-state target cleavage rate (min^-1); MIWI and MILI are mouse PIWI proteins and EfPiwi is from a freshwater sponge; tags in brackets are library labels; higher = faster piRNA-guided slicing of the target
Conditions: guide: piRNA #2 5'p-UUAGGUAACCCAGUAGAUCCAGAGGAAUUC; auxiliary factor: 500 nM mouse GTSF1
Outline: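 Cleave-'n-Seq used a transcribed, DNA-blocked target RNA library at 0.1 nM and active affinity-purified piRISC with one synthetic guide at 1 nM, with or without 500 nM GTSF1 partner protein, in HEPES–potassium acetate buffer at 33 °C for 0–8 or 0–960 min. Uncleaved targets were sequenced and normalised to depth and to weakly complementary targets, and three trials were pooled with k3 capped at 0.0001 min^-1. The pre-steady-state cleavage rate was estimated by a burst-and-steady-state fit.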

Sequence | pre-steady-state target cleavage rate
CAAUUCCUCUGGAUCUACUGUGGUUACCUAA | 0.00325 ± 0.0047
CUUAAGGACUGCAUCUACUCGGUUACCUAA | 0.000798 ± 0.027
CUUAAGGAGACCAUCUACUGGGUUUGCUAA | 0.00131 ± 0.0084
CUUAAGGAGACCUUCUACUGGUUUACCUAA | 0.00179 ± 0.0067
CUUUACCUCUGGAUCUACUCGGUUACCUAA | 0.0688 ± 0.0087
GAAUUCCUCUGGAACUACUGGGUUUCCUAA | 0.646 ± 0.21
CUUAAGGAGAGGAUCUACAGGGUUACCUUA | 0.00106 ± 0.0083
CUUAAGGAGUCCUUCUACUGGGUUACCUAA | 0.003 ± 0.0034
CUUAAGGAGACGAUGUACUGGGUUACCUAA | 0.000265 ± 0.013
GAAUUCCUCUGGAUCUACUGGCAAACCUAA | 0.00289 ± 0.0033
CUUAAGGAGACCUUCUACUGCCAUACCUAA | 0.000756 ± 0.0081
CUUAAGGAGACCAUGUACUGGGUUACCAAA | 0.000687 ± 0.011
CUUAAGGAGAGGAUCUACAGGGUUUCCUAA | 0.00122 ± 0.0074
CUUAAGGAGACGAUUACUGGGUUACCUAA | 0.000843 ± 0.0094
CUUAAGGAGACCUAGUACACCGUUACCUAA | 0.000994 ± 0.0091
CUUAAGGAGACGUUCUACUGGGUUUCCUAA | 0.00163 ± 0.0054
CUUAAGGAGACCUAGAGCUGGGUUACCUAA | 0.000472 ± 0.026
CUUAAGGAGACCAUCUAGUCGGUUACCUAA | 0.000311 ± 0.019
CUUAAGGAGAGGAUCUACUGGGAAUCCUAA | 0.000544 ± 0.014
CUUAAGGAGACCUACUACUCGGUUACGUAA | 0.000321 ± 0.01
CUUAAGGAGACCAACUACUGGGUUACGUAA | 0.00389 ± 0.004
GAAUUCCUCUGGAUCUCACUGGGUUACCUAA | 0.00338 ± 0.0043
CUUAAGGAGUGGAUCUACAUGGGUUACCUAA | 0.000105 ± 0.063
CUUAAGGACUGGAUCUACUGGGUUUGCUAA | 0.0111 ± 0.012
CUUAAGGACUGGAACUACUGGCUUACCUAA | 0.00413 ± 0.01
CUAUUCCUCUGGAUCUACUGAGGUUACCUAA | 0.00457 ± 0.0048

Given comma-delimited: entries from further up
Sequence,pre-steady-state target cleavage rate
CUUAAGGACUGGAUCUACUGGGUUUGCUAA,0.0111 ± 0.012
CUUAAGGACUGGAACUACUGGCUUACCUAA,0.00413 ± 0.01
CUAUUCCUCUGGAUCUACUGAGGUUACCUAA,0.00457 ± 0.0048

(further entries)

Sequence | pre-steady-state target cleavage rate
CUUAAGGAGUGGAUCAUCUGGGUUACCUAA | 0.000444 ± 0.022
CUUAAGGAGAGGAUCUACUGGGUUAGCUAA | 0.00343 ± 0.0055
CUUAAGGAGUGCAUCUACUGGGUUACCUUA | 0.00336 ± 0.0034
CUUAAGGAGACGAUCUACUGGAGUUACCUAA | 0.00171 ± 0.0056
CUUAAGGAGACCUUGUACUGGGUUACGUAA | 0.0003 ± 0.019
CUAUUCCUCUUGAUCUACUGGGUUACCUAA | 0.767 ± 0.04
CUUAAGGAGACGAUCUAACUGGGUUACCUAA | 0.000677 ± 0.01
CUUAAGGAGACCUUCUACUGGGUUACGCUAA | 0.00146 ± 0.0057
CUUAAGGAGACCUAGAUGACCGUUACCAUA [g4:g9:cont:t1A] | 0.000235 ± 0.021
CUUAAGGAGACCAUCUACUGGGUUAACCUAA | 0.00219 ± 0.0053
CUUAAGGAGAGGAACUACAGGGUUACCUAA | 0.000187 ± 0.043
CUUAAGGAGUCGAUCUACUCGGUUACCUAA | 0.00128 ± 0.0078
CUUUUCCACUGGAUCUACAGGGUUACCUAA | 0.248 ± 0.016
CUUAAGGAGACGAUUUACUGGGUUACCUAA | 0.0014 ± 0.0041
CAUUUCCUCUGGUUCUACUGGGUUACCUAA | 0.772 ± 0.046
CUUAAGGACUGGAUCUACUGGGUUAGCAAA | 0.00107 ± 0.019
CUUAAGGAGACCUUCUACUGGGUUAACUAA | 0.00168 ± 0.005
CUUAAGGAGACGUUCUACUGGGUUACGUAA | 0.000448 ± 0.013
CUUAAGGAGACGUUCUACUGGGUAACCUAA | 0.000182 ± 0.026
CUUAAGGAGUGGAACUACUGCGUUACCUAA | 0.00567 ± 0.0083
CUUAAGGAGACGAUACUACUGGGUUACCUAA | 0.000774 ± 0.0086
GAAUACCUCUGGAUCUACUGGGUAACCUAA | 0.168 ± 0.035
CUUAAGGACUGGAUCUACUGCGUUUCCUAA | 0.0102 ± 0.015
CUUAAGGAGACCUUGUACUGCGUUACCUAA | 0.000508 ± 0.0095
CUUAAGGAGUGCAUCUACUGGGUUAGCUAA | 0.00105 ± 0.0083
CUUAAGGAGACCUUCUGCUGGGUUACCUAA | 0.00273 ± 0.0064

Sequence | pre-steady-state target cleavage rate
CUUAAGGAGACCUAGAUCGGGGUUACCUAA | 0.000594 ± 0.0099
CUUAAGGAGACCAACUACUGGGUUACCUAA | 0.00287 ± 0.0036
CUUAAGGACUGGUUCAACUGGGUUACCUAA | 0.00896 ± 0.014
CUUAAGGAGACCUUCAACUGGGUUAGCUAA | 0.000216 ± 0.019
CAAUUCCUCUGGAUCUACUGGGUUACCUGAA | 0.438 ± 0.14
CUUAAGGAGACCUAGAUCUGGGUACCUAA | 0.000141 ± 0.033
GAAUUCCUCUGGAUCUUGAGGGUUACCUAA | 0.00301 ± 0.005
CUUAAGGAGAGGAUCUACUGGGAUACCUUA | 0.000292 ± 0.02
CUUAAGGAGAGGAUCUACUGGGUAUACCUAA | 0.0037 ± 0.0043
CUUAAGGAGUGCAUCUUCUGGGUUACCUAA | 0.000628 ± 0.019
GAAUUCCACUCGAUCUACUGGGUUACCUAA | 0.564 ± 0.056
CUUAAGGAGACGAUCUACUGCGGUUACCUAA | 0.0011 ± 0.0061
CAAUUCCUCUGGAUCUACUGGGUUUGGAUA [g7:g29:cont:t1A] | 0.00294 ± 0.0059
CUUAAGGAGACCUAGUACUGGGUUACGUUA | 0.000371 ± 0.032
CUUAAGGAGACGAUCUACUCGGUUACCUAA | 0.000755 ± 0.011
CUUAAGGAGACCAUCUACUGGGUACCUAA | 0.00193 ± 0.0049
CAAUUCCUCUGGAUCUUCUGGGUUACCUAA | 0.49 ± 0.065
CUUAAGGAGUGGAUGUACUGGGUUACCAAA | 0.00658 ± 0.012
GAAUUCCUCUUGGAUCUACUGGGUUACCUAA | 0.402 ± 0.042
CUUAAGGAGAGGAUCUACUAGGGUUACCUAA | 0.000744 ± 0.013
CUUAAGGAGACCAUCUACUGGGUAACCUUA | 0.000623 ± 0.011
CUUUUCCUCUGGAUCUACUCCCUUACCUAA | 0.00127 ± 0.0081
CUUAAGGAGACCAUCUACUGGGUUACCAUAA | 0.00272 ± 0.003
CAAUUCCUCUCCUUCUACUGGGUUACCUAA | 0.613 ± 0.058
CUUAAGGAGACCAUCUACUGGGUUACCUAU [g2:g18:cont:t1U] | 0.00309 ± 0.0058

Source: the supplement of paper PMC10338343
